# Reference: PubChem BioAssay AID624291 (National Center for Advancing Translational Sciences (NCATS), 2012)
# Hit rate of the full screen: of about 350,000 compounds, about 220 (0.063%) were called active. Inconclusive results, whose numbers are uncertain, are shown with a selection of clear calls. The call rests on the fitted dose curve; in most records, active means well fitted activation curve with a large enough effect; inconclusive means small, poorly fitted or top-dose-only effect; inactive means no such curve, though single readings can be large or run the other way. Potencies beside an inconclusive call are fits to weak or partial responses and may not hold up.
# Test: qHTS for Activators of Integrin-Mediated Alleviation for Muscular Dystrophy; further: nearly all actives have a fitted effect of over 60% in size;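 on activation: 100% = response of the positive control SU9516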
# Details: alpha7betagal myoblasts, beta-gal FDG fluorescence, 48 h; activation: at 38.3 µM (top of the series)
# Method in brief: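 alpha7betagal+/- myoblasts (passage 13, 250/well) treated 48 h at 37C with compounds at 1:260 dilution of DMSO stock. Lysed, then beta-galactosidase activity read as FDG fluorescence (ex 480/em 540) after 30 min, with pre-read for autofluorescence.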
# Potency means the concentration at half of the fitted maximal effect.
Structure (SMILES),Potency,activation
Cc1nn(C(C)C(=O)N2CCOCC2)c(C)c1[N+](=O)[O-] (centres undefined),"inconclusive: 2.82 µM [activator, partial curve, poor fit]",–
O=C(OCCOc1ccc(F)cc1)c1ccc(S(=O)(=O)N2CCCC2)cc1,"inconclusive: 5.01 µM [activator, single point]",–
O=C(NCCc1ccc(Cl)cc1)c1cnccn1,"inconclusive: 5.62 µM [activator, partial curve, poor fit]",–
COc1ccc(C2=NN(c3ccccc3)C(c3ccc(OC)c(OC)c3)C2)cc1 (centres undefined),"inconclusive: 11.2 µM [activator, single point]",–
CCN1C(=O)c2cccc3c(Cl)ccc1c23,"inconclusive: 12.6 µM [activator, single point]",–
N/C(=N\OC(=O)CSc1ccccc1)c1cccc([N+](=O)[O-])c1,"inconclusive: 5.01 µM [activator, single point]",–
O=S(=O)(Nc1ccc(-c2nc3cccnc3s2)cc1)c1ccccc1F,inactive,–
CCN(CC)CCNC(=O)c1c(O)c2cccc3c2n(c1=O)CCC3,inactive,–
COc1ccc(/C=C2\SC(=S)N(CC(=O)NCCO)C2=O)cc1,"inconclusive: 5.01 µM [activator, single point]",–
CNC(=O)CN(c1ccc(Oc2ccccc2)cc1)S(=O)(=O)c1ccc(C)cc1,inactive,–
CC(OC(=O)C1CCCCC1)C(=O)Nc1ccc(S(N)(=O)=O)cc1 (centres undefined),"inconclusive: 0.794 µM [activator, partial curve, poor fit]",–
COc1ccc(-c2ccc(CCC(=O)O)n2NC(N)=O)cc1,–,inconclusive: 37.4% [activator]
COc1ccc(OC)c(CNn2c(-c3ccccc3F)nc3ccccc3c2=O)c1,"inconclusive: 12.6 µM [activator, single point]",–
COc1ccc(C(=O)CCC(C)(C)[N+](=O)[O-])cc1,"inconclusive: 7.08 µM [activator, partial curve, poor fit]",–
S=c1[nH]ccn1-c1ccccc1Cl,"inconclusive: 7.08 µM [activator, partial curve, poor fit]",–
COc1ccc(-c2n[nH]c3c2CN(C(=O)c2ccccc2)CC3)cc1,"inconclusive: 5.62 µM [activator, partial curve, poor fit]",–
CNS(=O)(=O)c1cccc(C(=O)OCC(=O)Nc2ccc(-c3nc4ccc(C)cc4s3)cc2)c1,inactive,–
CCN(c1ccccc1)S(=O)(=O)c1cccc(C(=O)OCC(=O)c2c(N)n(C)c(=O)n(C)c2=O)c1,"inconclusive: 17.8 µM [activator, partial curve, poor fit]",–
CCO[C@@H]1OC(C(=O)NC2CC2)=C[C@H](c2ccc3c(c2)OCO3)[C@H]1CCCO,inactive,–
Cc1cc(C(=O)N/N=C/c2ccc(-c3cccc(Cl)c3)o2)n[nH]1,"inconclusive: 5.01 µM [activator, single point]",–
CCCOc1ccc(CC(=O)NCc2ccco2)cc1OC,inactive,–
O=c1ccc(-c2ccc(S(=O)(=O)NCC3CCN(Cc4ccccc4F)CC3)s2)n[nH]1,"inconclusive: 0.501 µM [activator, full curve, poor fit]",–

# Pulled by compound from above, 2 records:
Structure (SMILES),Potency,activation
COc1ccc(C(=O)CCC(C)(C)[N+](=O)[O-])cc1,"inconclusive: 7.08 µM [activator, partial curve, poor fit]",–
COc1ccc(/C=C2\SC(=S)N(CC(=O)NCCO)C2=O)cc1,"inconclusive: 5.01 µM [activator, single point]",–

# Next compounds.

Structure (SMILES),Potency,activation
COC(=O)c1cc(S(=O)(=O)NCCCN2CCCC2=O)cn1C,"inconclusive: 5.01 µM [activator, single point]",–
N#Cc1ccc(CSc2nnc3ccccn23)cc1,"inconclusive: 1.41 µM [activator, partial curve, poor fit]",–
CCNC(=O)CSc1nnc(C2CC2)n1-c1ccccc1,inactive,–
CC1CCN(CCC(=O)Nc2ccc(Br)cc2)CC1,inactive,–
Cc1cccc(CC(=O)NCCN2CCOCC2)c1,"inconclusive: 12.6 µM [activator, single point]",–
Cc1cc(C)c(C)c(S(=O)(=O)N2CCC(C(=O)N(C)Cc3nc4ccccc4c(=O)[nH]3)CC2)c1C,"inconclusive: 1.58 µM [activator, partial curve, poor fit]",–
CCC(C#CCN1CCOCC1)(CC)OCCC#N,inactive,–
COC(=O)c1ccc(CSc2nc(C)nc3sc(C)c(C)c23)o1,–,inactive: -17.9% [at 7.66 µM]
CCC(C(=O)Nc1ccc(S(=O)(=O)N2CCN(C)CC2)cc1)c1ccccc1 (centres undefined),"inconclusive: 15.8 µM [activator, partial curve, poor fit]",–
COc1cccc(C(=O)N(c2ccc(OC)cc2OC)C2C=CS(=O)(=O)C2)c1 (centres undefined),"inconclusive: 5.01 µM [activator, single point]",–
COc1ccc(N2CCN(c3nc(=S)n(-c4ccccc4)c(C)c3C(C)=O)CC2)cc1,–,inconclusive: 20.8% [activator]
S=C(Nc1ccc(Cl)c(Cl)c1)NC1CCN(Cc2ccccc2)CC1,inactive,–
Cc1cccc(COC(=O)Nc2ccc(NC(=O)c3ccccc3Cl)cc2)c1,inactive,–
O=C(COC(=O)COc1ccccc1F)Nc1ccc2c(c1)OCO2,"inconclusive: 11.2 µM [activator, partial curve, poor fit]",–
COc1ccc(CCNC(=O)C2CC(O)CN2S(=O)(=O)c2ccc(Cl)cc2)cc1OC (centres undefined),inactive,–
CCCCCCCCCCCCCCC(O)C[N+](C)(CCO)CCO (centres undefined),inactive,–
O=C(c1ccc(O)c(Br)c1)c1cc(Br)ccc1O,"inconclusive: 22.4 µM [activator, single point]",–
C/C(=N/NC(=O)c1sc(NS(=O)(=O)c2ccccc2)nc1C)c1ccccc1,"inconclusive: 28.2 µM [activator, single point]",–
COc1ccc(CC(=O)Nc2ccc(NC(=O)c3ccccc3F)cc2)cc1,"inconclusive: 5.01 µM [activator, single point]",–
CC(C)NC(=S)NCc1cccs1,"inconclusive: 2.24 µM [activator, partial curve, poor fit]",–
O=C(N/C(=C\c1cccs1)C(=O)N1CCOCC1)c1ccco1,"inconclusive: 5.01 µM [activator, single point]",–
CCc1nc(N2CCN(C(C)=O)CC2)c2c3c(sc2n1)CC(C(C)(C)C)CC3 (centres undefined),"inconclusive: 2.51 µM [activator, single point]",–
